No constants are given. Whether binding was seen depends on the method and setting. For some assays here: In cells and extracts the contact can be indirect. Some entries that bind do so weakly or less than the wild type.
Experiments:
Hoxa1 (mouse) = Hoxa1 (mouse) (UniProt P09022); experiment: two-hybrid; DB-Hoxa1 (Gal4 DNA binding domain) in MATα Y8930 mated with the AD-hORF library (human ORFeome v3.1) in MATa Y8800; 30°C; selection on Sc-L-T-H + 1 mM 3AT, retest on Sc-L-T-H, Sc-L-T-A and Sc-L-T-H-A+3AT
VC155-Hoxa1 (mouse) = VC155-Hoxa1 (mouse) (UniProt P09022); experiment: split reporter; BiFC in transfected MCF10A cells: VN173-hORF with VC155-Hoxa1; fixed 24 h after transfection, confocal microscopy

The chains behind the UniProt entries cited, without tags or fusion partners.
UniProt P09022: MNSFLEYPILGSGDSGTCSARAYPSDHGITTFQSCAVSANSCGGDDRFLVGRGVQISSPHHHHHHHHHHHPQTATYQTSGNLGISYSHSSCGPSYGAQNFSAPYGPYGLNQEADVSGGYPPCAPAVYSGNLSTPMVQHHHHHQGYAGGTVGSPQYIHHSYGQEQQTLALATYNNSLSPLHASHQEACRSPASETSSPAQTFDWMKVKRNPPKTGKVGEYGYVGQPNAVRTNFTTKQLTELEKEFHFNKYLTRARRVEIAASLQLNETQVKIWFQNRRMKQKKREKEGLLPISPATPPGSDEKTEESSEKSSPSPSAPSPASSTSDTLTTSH
UniProt O95967: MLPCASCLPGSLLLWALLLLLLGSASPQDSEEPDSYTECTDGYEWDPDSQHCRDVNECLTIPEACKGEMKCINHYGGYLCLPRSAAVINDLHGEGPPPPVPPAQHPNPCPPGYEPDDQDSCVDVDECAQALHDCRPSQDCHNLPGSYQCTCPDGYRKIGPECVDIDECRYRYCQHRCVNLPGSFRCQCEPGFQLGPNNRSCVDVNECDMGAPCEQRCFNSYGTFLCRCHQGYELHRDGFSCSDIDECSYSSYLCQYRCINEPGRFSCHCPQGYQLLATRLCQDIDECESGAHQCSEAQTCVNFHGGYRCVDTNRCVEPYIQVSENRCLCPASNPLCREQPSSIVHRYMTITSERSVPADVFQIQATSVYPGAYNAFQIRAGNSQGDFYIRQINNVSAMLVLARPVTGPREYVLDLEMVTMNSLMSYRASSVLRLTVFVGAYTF
UniProt Q9UKS7: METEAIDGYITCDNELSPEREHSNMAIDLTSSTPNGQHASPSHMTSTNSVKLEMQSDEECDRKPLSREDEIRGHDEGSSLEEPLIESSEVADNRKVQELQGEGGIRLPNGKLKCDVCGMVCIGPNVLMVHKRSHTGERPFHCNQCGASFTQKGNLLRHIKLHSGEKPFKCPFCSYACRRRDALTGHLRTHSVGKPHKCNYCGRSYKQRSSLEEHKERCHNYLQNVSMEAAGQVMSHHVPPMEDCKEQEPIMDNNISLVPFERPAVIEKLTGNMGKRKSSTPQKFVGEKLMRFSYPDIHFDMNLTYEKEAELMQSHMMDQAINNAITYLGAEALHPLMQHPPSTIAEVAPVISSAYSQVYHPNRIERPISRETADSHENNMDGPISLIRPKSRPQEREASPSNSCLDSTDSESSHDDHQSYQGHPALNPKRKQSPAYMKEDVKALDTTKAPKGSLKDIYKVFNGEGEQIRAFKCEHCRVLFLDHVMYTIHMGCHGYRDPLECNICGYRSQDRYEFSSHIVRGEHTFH
UniProt Q9BYM8: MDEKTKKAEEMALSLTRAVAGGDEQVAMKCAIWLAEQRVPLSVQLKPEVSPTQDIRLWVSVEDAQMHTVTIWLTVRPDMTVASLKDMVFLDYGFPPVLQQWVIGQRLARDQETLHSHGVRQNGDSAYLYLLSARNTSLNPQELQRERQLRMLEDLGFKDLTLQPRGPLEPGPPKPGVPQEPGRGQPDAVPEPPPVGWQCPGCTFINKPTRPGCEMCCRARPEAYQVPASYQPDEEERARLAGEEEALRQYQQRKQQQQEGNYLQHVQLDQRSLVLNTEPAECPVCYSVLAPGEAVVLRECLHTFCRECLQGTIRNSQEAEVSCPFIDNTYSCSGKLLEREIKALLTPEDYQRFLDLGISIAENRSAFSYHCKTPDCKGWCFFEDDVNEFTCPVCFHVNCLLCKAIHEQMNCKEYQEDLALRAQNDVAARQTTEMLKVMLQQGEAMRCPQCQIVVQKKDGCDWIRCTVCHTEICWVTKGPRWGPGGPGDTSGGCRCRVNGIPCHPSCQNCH
UniProt Q8N5R6: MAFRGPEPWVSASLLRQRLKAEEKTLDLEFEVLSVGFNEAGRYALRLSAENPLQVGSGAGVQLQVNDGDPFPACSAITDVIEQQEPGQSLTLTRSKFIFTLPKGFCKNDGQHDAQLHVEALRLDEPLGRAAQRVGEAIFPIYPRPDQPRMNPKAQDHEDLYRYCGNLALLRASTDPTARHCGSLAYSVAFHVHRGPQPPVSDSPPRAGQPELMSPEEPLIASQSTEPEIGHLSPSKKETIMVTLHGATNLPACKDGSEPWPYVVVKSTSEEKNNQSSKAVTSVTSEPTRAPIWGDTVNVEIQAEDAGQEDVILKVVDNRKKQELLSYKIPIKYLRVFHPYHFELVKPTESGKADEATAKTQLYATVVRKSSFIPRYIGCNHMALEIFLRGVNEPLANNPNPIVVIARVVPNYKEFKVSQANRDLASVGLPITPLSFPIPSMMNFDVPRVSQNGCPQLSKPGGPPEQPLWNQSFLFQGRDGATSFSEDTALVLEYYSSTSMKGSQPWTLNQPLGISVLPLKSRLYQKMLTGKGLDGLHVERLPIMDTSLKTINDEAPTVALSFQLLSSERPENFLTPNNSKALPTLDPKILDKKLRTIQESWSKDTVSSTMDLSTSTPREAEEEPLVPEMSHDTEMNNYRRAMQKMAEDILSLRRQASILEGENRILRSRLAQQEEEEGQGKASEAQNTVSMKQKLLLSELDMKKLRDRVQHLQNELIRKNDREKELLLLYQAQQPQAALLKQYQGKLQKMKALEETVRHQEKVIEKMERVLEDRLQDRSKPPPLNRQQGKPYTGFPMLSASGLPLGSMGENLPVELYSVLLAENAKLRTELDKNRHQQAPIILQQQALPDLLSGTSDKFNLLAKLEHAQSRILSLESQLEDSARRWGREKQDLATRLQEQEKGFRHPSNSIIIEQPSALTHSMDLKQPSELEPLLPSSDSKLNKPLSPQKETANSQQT
UniProt P49639: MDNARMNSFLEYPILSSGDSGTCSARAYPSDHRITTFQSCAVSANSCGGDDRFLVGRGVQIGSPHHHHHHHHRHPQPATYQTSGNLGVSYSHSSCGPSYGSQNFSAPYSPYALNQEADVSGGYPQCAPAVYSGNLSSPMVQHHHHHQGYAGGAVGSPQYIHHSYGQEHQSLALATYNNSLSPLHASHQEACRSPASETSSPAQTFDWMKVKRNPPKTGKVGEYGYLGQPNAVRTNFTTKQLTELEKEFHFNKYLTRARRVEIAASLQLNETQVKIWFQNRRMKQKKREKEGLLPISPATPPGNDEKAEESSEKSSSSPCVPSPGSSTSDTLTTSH
UniProt P31249: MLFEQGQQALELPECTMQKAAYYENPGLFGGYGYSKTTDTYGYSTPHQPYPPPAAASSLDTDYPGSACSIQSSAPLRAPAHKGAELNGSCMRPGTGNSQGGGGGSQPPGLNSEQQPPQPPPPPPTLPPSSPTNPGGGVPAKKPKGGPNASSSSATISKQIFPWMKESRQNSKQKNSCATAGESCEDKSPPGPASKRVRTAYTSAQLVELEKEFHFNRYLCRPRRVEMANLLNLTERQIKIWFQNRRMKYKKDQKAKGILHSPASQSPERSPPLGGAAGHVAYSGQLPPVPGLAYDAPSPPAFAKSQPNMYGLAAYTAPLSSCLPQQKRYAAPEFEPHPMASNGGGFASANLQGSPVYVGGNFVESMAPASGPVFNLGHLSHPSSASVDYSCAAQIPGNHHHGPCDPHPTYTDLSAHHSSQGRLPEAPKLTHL
UniProt Q9BYR7: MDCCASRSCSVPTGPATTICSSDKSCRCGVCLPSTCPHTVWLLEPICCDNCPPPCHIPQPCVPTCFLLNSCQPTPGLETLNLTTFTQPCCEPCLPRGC
UniProt Q9BYR6: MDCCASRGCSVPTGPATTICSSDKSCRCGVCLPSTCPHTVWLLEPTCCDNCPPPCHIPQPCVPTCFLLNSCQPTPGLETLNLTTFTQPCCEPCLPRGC
UniProt Q99697: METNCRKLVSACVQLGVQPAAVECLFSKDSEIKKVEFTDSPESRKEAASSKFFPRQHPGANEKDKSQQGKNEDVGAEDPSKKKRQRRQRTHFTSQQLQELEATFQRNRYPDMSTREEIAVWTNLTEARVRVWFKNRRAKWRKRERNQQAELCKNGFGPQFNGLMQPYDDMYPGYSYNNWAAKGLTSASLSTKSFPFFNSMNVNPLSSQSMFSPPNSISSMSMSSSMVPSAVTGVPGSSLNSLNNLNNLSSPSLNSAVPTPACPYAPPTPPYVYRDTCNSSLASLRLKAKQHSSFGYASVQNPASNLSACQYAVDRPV
UniProt Q92824: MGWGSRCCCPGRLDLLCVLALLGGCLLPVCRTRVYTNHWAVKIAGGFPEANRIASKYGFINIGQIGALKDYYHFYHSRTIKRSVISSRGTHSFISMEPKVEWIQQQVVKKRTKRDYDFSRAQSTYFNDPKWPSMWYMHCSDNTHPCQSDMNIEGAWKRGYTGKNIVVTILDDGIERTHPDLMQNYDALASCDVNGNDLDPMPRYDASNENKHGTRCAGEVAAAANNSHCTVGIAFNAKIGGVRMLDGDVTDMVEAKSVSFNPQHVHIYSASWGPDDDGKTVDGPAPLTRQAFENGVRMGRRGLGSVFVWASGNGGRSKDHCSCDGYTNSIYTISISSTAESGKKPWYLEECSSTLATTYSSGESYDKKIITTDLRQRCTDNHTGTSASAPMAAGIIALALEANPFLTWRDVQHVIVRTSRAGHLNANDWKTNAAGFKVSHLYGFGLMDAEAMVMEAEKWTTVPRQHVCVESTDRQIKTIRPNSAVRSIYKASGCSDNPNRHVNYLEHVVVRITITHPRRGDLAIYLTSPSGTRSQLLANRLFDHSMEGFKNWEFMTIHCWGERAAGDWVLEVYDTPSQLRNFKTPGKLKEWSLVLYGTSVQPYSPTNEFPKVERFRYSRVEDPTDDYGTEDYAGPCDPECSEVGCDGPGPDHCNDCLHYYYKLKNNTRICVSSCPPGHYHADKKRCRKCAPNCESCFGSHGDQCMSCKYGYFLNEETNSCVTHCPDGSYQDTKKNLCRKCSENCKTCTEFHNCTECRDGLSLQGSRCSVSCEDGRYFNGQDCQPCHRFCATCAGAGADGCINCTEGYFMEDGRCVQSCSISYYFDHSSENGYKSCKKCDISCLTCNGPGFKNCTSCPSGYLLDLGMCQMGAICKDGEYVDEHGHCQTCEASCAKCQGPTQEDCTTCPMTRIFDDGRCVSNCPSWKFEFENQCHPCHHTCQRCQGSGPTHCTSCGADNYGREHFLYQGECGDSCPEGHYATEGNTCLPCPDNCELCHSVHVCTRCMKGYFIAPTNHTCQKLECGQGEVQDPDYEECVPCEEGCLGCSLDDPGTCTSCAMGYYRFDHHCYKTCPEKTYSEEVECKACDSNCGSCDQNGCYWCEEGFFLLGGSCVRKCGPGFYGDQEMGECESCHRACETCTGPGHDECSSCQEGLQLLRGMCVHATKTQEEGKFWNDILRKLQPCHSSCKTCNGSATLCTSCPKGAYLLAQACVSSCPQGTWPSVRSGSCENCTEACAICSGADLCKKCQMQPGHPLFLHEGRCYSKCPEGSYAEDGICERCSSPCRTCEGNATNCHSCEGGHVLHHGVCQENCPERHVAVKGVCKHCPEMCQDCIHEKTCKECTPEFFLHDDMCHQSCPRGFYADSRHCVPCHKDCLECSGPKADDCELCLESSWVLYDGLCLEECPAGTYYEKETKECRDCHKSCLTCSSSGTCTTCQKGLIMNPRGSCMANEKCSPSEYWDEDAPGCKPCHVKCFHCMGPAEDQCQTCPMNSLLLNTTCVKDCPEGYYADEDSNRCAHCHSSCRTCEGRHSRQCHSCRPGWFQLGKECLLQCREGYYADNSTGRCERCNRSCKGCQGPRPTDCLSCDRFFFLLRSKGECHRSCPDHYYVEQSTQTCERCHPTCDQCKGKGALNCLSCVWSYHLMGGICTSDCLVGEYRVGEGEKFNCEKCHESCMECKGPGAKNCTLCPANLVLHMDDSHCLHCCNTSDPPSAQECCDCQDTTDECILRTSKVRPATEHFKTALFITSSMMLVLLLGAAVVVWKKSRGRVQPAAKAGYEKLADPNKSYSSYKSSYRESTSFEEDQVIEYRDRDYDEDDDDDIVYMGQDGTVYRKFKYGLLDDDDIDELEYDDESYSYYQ
UniProt O75865: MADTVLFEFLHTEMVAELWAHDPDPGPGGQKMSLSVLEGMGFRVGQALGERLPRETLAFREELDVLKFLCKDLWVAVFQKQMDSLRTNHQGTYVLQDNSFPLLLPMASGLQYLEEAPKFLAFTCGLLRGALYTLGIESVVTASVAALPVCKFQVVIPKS
UniProt Q9Y2Y4: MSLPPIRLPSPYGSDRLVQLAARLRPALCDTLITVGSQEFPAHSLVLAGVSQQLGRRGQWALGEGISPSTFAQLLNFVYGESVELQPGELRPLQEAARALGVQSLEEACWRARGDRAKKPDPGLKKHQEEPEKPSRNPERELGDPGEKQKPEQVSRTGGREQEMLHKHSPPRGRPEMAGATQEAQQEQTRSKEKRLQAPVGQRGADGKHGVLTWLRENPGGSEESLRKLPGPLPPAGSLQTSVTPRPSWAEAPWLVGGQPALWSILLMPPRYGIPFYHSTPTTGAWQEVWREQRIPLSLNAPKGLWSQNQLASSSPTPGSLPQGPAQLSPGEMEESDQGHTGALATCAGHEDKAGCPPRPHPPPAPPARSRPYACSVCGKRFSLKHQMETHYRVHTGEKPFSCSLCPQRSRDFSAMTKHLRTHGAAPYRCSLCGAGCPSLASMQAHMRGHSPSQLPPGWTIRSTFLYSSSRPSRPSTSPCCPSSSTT

Row | binding (Hoxa1 (mouse)) | binding (VC155-Hoxa1 (mouse)) | Substance
1 | binds |  | EGF-containing fibulin-like extracellular matrix protein 2 (from UniProt O95967 1-443)
2 |  | binds | IKAROS family zinc finger 2 (from UniProt Q9UKS7 1-526)
3 |  | binds | LIM and senescent cell antigen-like domains 1 (from UniProt P48059 1-325)
4 | binds | binds | PDZ and LIM domain 7 (from UniProt Q9NR12-1 1-457)
5 | binds | binds | RNA binding protein with multiple splicing (from UniProt Q93062 1-196)
6 | binds | binds | RanBP-type and C3HC4-type zinc finger containing 1 (from UniProt Q9BYM8 1-510)
7 | binds |  | coiled-coil domain containing 33 (from UniProt Q8N5R6 1-958)
8 | binds | binds | homeobox A1 (from UniProt P49639 1-335)
9 | binds | binds | homeobox D3 (from UniProt P31249 1-432)
10 | binds | binds | keratin associated protein 3-2 (from UniProt Q9BYR7 1-98)
11 | binds |  | keratin associated protein 3-3 (from UniProt Q9BYR6 1-98)
12 |  | binds | paired-like homeodomain 2 (from UniProt Q99697 1-317)
13 | binds |  | proprotein convertase subtilisin/kexin type 5 (from UniProt Q92824 1-1860)
14 |  | binds | trafficking protein particle complex 6A (from UniProt O75865 1-159)
15 | binds | binds | zinc finger and BTB domain containing 32 (from UniProt Q9Y2Y4 1-487)

Row | Substance | binding (Hoxa1 (mouse)) | binding (VC155-Hoxa1 (mouse))
16 | programmed cell death 6 interacting protein (from UniProt Q8WUM4 1-868) |  | binds

Reference: PMC3514159
